The values that follow come from PMC5651854, “Reconstitution of human shelterin complexes reveals unexpected stoichiometry and dual pathways to enhance telomerase processivity” (Nature Communications, 2017).

By UniProt entry, the sequences of proteins in these tests, tags left out.
UniProt Q15554: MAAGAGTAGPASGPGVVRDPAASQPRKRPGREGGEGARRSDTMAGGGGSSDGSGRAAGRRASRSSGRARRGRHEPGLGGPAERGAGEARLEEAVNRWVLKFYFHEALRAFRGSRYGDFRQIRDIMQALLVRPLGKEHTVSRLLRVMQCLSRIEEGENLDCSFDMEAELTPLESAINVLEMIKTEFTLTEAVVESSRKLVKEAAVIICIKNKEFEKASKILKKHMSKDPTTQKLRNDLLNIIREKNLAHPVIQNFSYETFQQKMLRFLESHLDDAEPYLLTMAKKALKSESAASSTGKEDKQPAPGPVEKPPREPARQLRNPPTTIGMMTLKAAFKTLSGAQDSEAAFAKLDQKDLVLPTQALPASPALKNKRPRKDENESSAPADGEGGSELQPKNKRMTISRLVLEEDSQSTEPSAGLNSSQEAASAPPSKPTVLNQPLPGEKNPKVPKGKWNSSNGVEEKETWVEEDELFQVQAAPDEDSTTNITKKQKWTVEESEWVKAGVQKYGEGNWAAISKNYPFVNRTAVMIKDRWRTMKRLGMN

No constants are given. Whether binding was seen depends on the method and setting. Some binding calls cover weakened binding; strength is not graded here.

One experiment has as its target Human TRF2 (human) (UniProt Q15554). Briefly: SEC; proteins co-expressed in Tni insect cells, complex purified (amylose, PreScission cleavage, anion exchange), then Superose 6 Increase 10/300 GL in 50 mM HEPES pH 7.5, 300 mM NaCl, 1 mM TCEP, 4 °C; subunits elute in one peak; both purified. Background: Size exclusion chromatography separates by hydrodynamic size, large species first.

Experiment [1] deals with T1, Human RAP1 (human), Q9NYB0.
T1 chain: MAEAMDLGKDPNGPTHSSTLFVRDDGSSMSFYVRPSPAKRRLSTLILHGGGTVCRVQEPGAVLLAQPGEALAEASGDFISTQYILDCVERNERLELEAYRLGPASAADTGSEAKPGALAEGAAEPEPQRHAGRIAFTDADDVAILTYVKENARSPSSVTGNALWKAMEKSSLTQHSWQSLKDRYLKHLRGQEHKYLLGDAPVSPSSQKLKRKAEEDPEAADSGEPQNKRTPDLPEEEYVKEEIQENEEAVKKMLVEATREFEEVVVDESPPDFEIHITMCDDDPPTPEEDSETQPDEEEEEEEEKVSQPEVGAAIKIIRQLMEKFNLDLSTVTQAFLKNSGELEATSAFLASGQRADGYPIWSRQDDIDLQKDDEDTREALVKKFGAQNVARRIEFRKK
Briefly: SEC-MALS; purified proteins or co-expressed, purified complexes at 1 mg ml^−1, 100 µl on Superose 6 Increase 10/300 GL, 0.5 ml min^−1, 25 °C, 50 mM HEPES pH 7.5, 300 mM NaCl, 1 mM TCEP; both purified. As to conditions: remark: other sources report otherwise.

B1: Human RAP1 (protein, UniProt Q9NYB0 1-399)
chain: MAEAMDLGKDPNGPTHSSTLFVRDDGSSMSFYVRPSPAKRRLSTLILHGGGTVCRVQEPGAVLLAQPGEALAEASGDFISTQYILDCVERNERLELEAYRLGPASAADTGSEAKPGALAEGAAEPEPQRHAGRIAFTDADDVAILTYVKENARSPSSVTGNALWKAMEKSSLTQHSWQSLKDRYLKHLRGQEHKYLLGDAPVSPSSQKLKRKAEEDPEAADSGEPQNKRTPDLPEEEYVKEEIQENEEAVKKMLVEATREFEEVVVDESPPDFEIHITMCDDDPPTPEEDSETQPDEEEEEEEEKVSQPEVGAAIKIIRQLMEKFNLDLSTVTQAFLKNSGELEATSAFLASGQRADGYPIWSRQDDIDLQKDDEDTREALVKKFGAQNVARRIEFRKK
In the case of B1, the binding entry in the experiment with Human TRF2 (human) was “binds”.

B2: Human RAP1, Q9NYB0 1-399 (protein)
chain: MAEAMDLGKDPNGPTHSSTLFVRDDGSSMSFYVRPSPAKRRLSTLILHGGGTVCRVQEPGAVLLAQPGEALAEASGDFISTQYILDCVERNERLELEAYRLGPASAADTGSEAKPGALAEGAAEPEPQRHAGRIAFTDADDVAILTYVKENARSPSSVTGNALWKAMEKSSLTQHSWQSLKDRYLKHLRGQEHKYLLGDAPVSPSSQKLKRKAEEDPEAADSGEPQNKRTPDLPEEEYVKEEIQENEEAVKKMLVEATREFEEVVVDESPPDFEIHITMCDDDPPTPEEDSETQPDEEEEEEEEKVSQPEVGAAIKIIRQLMEKFNLDLSTVTQAFLKNSGELEATSAFLASGQRADGYPIWSRQDDIDLQKDDEDTREALVKKFGAQNVARRIEFRKK
As for B2, the binding result in experiment [1] is given as “no binding (tested: 1 mg ml^−1)”.
